Experimental data taken from PubChem BioAssay AID330 (DTP/NCI, 2004).
The list does not hold the whole screen: it gathers tests that were run many times, whatever their T/C, doses with no T/C, and many T/C values between a quarter and a half above the control. Further doses and runs are listed elsewhere. T/C is the treated group as % of the vehicle group. Some entries give survivors of the animals treated and no T/C: the source holds a T/C of zero for them, seemingly a mark for toxic or unscored doses. Some doses without a T/C left all or most animals alive at the check, yet need not have been tolerated: survival well below the control is almost never listed, so the zero probably covers shortened survival too. Counts of survivors are from the toxicity check (mostly the fifth day) where no day follows; animals may have died later. Schedules are NCI's codes, read here as Q, the interval in days (D) or hours (H), X, the number of doses. Some entries were tested several times; the results are listed from low to high. Where survival is the endpoint, this PubChem deposit counts one and a half times the control or more as active, and values a quarter to a half above the control carry no call in these data; other NCI protocols may use other cut-offs. Some T/C values are followed by the survivors on the day toxicity was checked, most often the fifth; without a count, all were alive then.

System: P388 leukemia ip, CD2F1 mice, survival T/C
Assay: NCI In Vivo Anticancer Drug Screen. Data for tumor model P388 Leukemia (intraperitoneal) in CD2F1 (CDF1) mice
Settings: T/C endpoint: median survival time, higher T/C = longer survival
[1] = dose: 200.0 mg/kg/injection, schedule: Q01DX001 (ip), vehicle: saline with Tween-80
[2] = dose: 100.0 mg/kg/injection, schedule: Q01DX005 (ip), vehicle: Klucel (hydroxypropylcellulose) (HPC)
[3] = dose: 200.0 mg/kg/injection, schedule: Q01DX005 (ip), vehicle: Klucel (hydroxypropylcellulose) (HPC)
[4] = dose: 400.0 mg/kg/injection, schedule: Q04DX003 (ip), vehicle: saline with Tween-80
[5] = dose: 12.5 mg/kg/injection, schedule: Q01DX009 (ip), vehicle: other
[6] = dose: 50.0 mg/kg/injection, schedule: Q01DX005 (ip), vehicle: Klucel (hydroxypropylcellulose) (HPC)
[7] = dose: 6.25 mg/kg/injection, schedule: Q01DX009 (ip), vehicle: water

SMILES: CSCC(NP1(=O)SC(NN=C(C)C)=NC1(C)C)C(=O)O (stereo unspecified)
- survivor count (dose: 240.0 mg/kg/injection, schedule: Q01DX005 (ip), vehicle: saline): 0 of 6

SMILES: CC(C)(C)[Si](C)(C)OCc1ccccc1N1C(=O)C(N=[N+]=[N-])C1/C=C/c1ccccc1 (stereo unspecified)
- survivor count (dose: 100.0 mg/kg/injection, schedule: Q01DX001 (ip), vehicle: saline with Tween-80): 6 of 6
- survivor count [1]: 6 of 6

SMILES: CC(=O)Oc1c(OC(C)=O)c(C=O)c2c(OC(C)=O)c(-c3c(C)cc4c(C(C)C)c(OC(C)=O)c(OC(C)=O)c(C=O)c4c3OC(C)=O)c(C)cc2c1C(C)C
- survivor count [2]: 0 of 6
- survivor count [3]: 0 of 6

SMILES: O=C1CN(/N=C/c2ccc(-c3cccc(C(F)(F)F)c3)o2)C(=O)N1
- survivor count (dose: 200.0 mg/kg/injection, schedule: Q04DX002 (ip), vehicle: saline with Tween-80): 3 of 6

SMILES: COc1ccc(-c2nccc3cc(OC)c(OC)cc23)cc1O
- survivor count (dose: 200.0 mg/kg/injection, schedule: Q01DX009 (ip), vehicle: other): 3 of 6
- survivor count (dose: 400.0 mg/kg/injection, schedule: Q01DX009 (ip), vehicle: other): 0 of 6

SMILES: COc1cc(C)nc2ccc(Cc3ccc4nc(C)cc(OC)c4c3)cc12
- survivor count (dose: 100.0 mg/kg/injection, schedule: Q04DX003 (ip), vehicle: saline with Tween-80): 0 of 6 and 1 of 6
- survivor count (dose: 200.0 mg/kg/injection, schedule: Q04DX003 (ip), vehicle: saline with Tween-80): 0 of 6
- survivor count [4]: 0 of 6

SMILES: CCCOC1CC(C)(O)Cc2cc3c(c(O)c21)C(=O)c1c(O)cc2c(c1C3=O)OC1OC2(C)C(O)C(N(C)C)C1O (stereo unspecified)
- T/C (dose: 1.56 mg/kg/injection, schedule: Q01DX009 (ip), vehicle: other): 140 % of control
- T/C (dose: 3.13 mg/kg/injection, schedule: Q01DX009 (ip), vehicle: other): 126 % of control
- T/C (dose: 6.25 mg/kg/injection, schedule: Q01DX009 (ip), vehicle: other): 134 and 145 % of control
- T/C [5]: 140 % of control
- survivor count [5]: 6 of 6
- survivor count (dose: 25.0 mg/kg/injection, schedule: Q01DX009 (ip), vehicle: other): 0 of 6 and 2 of 6

SMILES: CCNC1CC(C)(O)Cc2cc3c(c(O)c21)C(=O)c1c(O)cc2c(c1C3=O)OC1OC2(C)C(O)C(N(C)C)C1O (stereo unspecified)
- T/C [5]: 146 % of control
- survivor count (dose: 100.0 mg/kg/injection, schedule: Q01DX009 (ip), vehicle: other): 2 of 6

SMILES: COC(=O)C1(C)CC2C(C)(CCC3(C)C4=CC=C5C(=CC(=O)C(O)=C5C)C4(C)CCC23C)CC1O (stereo unspecified)
- survivor count [1]: 0 of 6
- survivor count (dose: 400.0 mg/kg/injection, schedule: Q01DX001 (ip), vehicle: saline with Tween-80): 0 of 6

SMILES: O=S(=O)(CCNCCCCC1CCCCC1)SCCNCCCCC1CCCCC1
- survivor count [6]: 1 of 5
- survivor count [2]: 5 of 5
- survivor count [3]: 5 of 5

SMILES: CCOP(=O)(O)SP(=O)(O)OCC.CCOP(=O)(O)SP(=O)(O)OCC.[Co]
- survivor count (dose: 200.0 mg/kg/injection, schedule: Q01DX001 (ip), vehicle: saline): 0 of 6
- survivor count (dose: 400.0 mg/kg/injection, schedule: Q01DX001 (ip), vehicle: saline): 0 of 6

SMILES: CNC(=O)OC1CC2CCCCC2C([N+](C)(C)C)C1 (stereo unspecified)
- survivor count (dose: 100.0 mg/kg/injection, schedule: Q01DX009 (ip), vehicle: saline): 0 of 6
- survivor count (dose: 200.0 mg/kg/injection, schedule: Q01DX009 (ip), vehicle: saline): 0 of 6

SMILES: CCCCN(CCCC)c1ccc(C(=N)c2ccc(N(C)C)cc2)cc1
- survivor count (dose: 25.0 mg/kg/injection, schedule: Q01DX005 (ip), vehicle: Klucel (hydroxypropylcellulose) (HPC)): 0 of 5
- survivor count [6]: 0 of 5
- survivor count [2]: 0 of 5
- survivor count [3]: 0 of 5

SMILES: COc1ccc(OC)c(NC(=O)NC(c2ccccc2)c2ccccc2)c1
- survivor count (dose: 12.5 mg/kg/injection, schedule: Q01DX009 (ip), vehicle: Klucel (hydroxypropylcellulose) (HPC)): 6 of 6
- survivor count (dose: 50.0 mg/kg/injection, schedule: Q01DX009 (ip), vehicle: Klucel (hydroxypropylcellulose) (HPC)): 6 of 6
- survivor count (dose: 100.0 mg/kg/injection, schedule: Q01DX009 (ip), vehicle: Klucel (hydroxypropylcellulose) (HPC)): 6 of 6

SMILES: N#Cc1ccc(NN=NCCCl)cc1
- T/C (dose: 25.0 mg/kg/injection, schedule: Q01DX009 (ip), vehicle: distilled water + Tween-80): 131 % of control
- T/C (dose: 50.0 mg/kg/injection, schedule: Q01DX009 (ip), vehicle: distilled water + Tween-80): 142 % of control
- survivor count (dose: 200.0 mg/kg/injection, schedule: Q01DX009 (ip), vehicle: distilled water + Tween-80): 0 of 5
- survivor count (dose: 200.0 mg/kg/injection, schedule: Q01DX009 (ip), vehicle: distilled water + alcohol): 3 of 6

SMILES: COc1cccc2c1C(=O)c1c(O)c3c(c(O)c1C2=O)C[C@@](O)(c1csc(N2CCN(C)CC2)n1)C[C@@H]3OC1CC(N)C(O)C(C)O1 (stereo partly specified)
- T/C (dose: 0.78 mg/kg/injection, schedule: Q01DX009 (ip), vehicle: water): 132 % of control
- T/C (dose: 1.56 mg/kg/injection, schedule: Q01DX009 (ip), vehicle: water): 125 and 138 % of control
- T/C (dose: 3.13 mg/kg/injection, schedule: Q01DX009 (ip), vehicle: water): 140 and 148 % of control
- T/C [7]: 129 % of control
- survivor count [7]: 4 of 6 and 6 of 6
- survivor count (dose: 12.5 mg/kg/injection, schedule: Q01DX009 (ip), vehicle: water): 5 of 6
- survivor count (dose: 25.0 mg/kg/injection, schedule: Q01DX009 (ip), vehicle: water): 4 of 6

SMILES: COC1=C(N=[N+]=[N-])C(=O)c2ncccc2C1=O
- survivor count (dose: 6.25 mg/kg/injection, schedule: Q01DX009 (ip), vehicle: saline with Tween-80): 2 of 6
- survivor count (dose: 10.0 mg/kg/injection, schedule: Q01DX009 (ip), vehicle: DMSO): 2 of 6
- survivor count (dose: 12.5 mg/kg/injection, schedule: Q01DX009 (ip), vehicle: saline with Tween-80): 1 of 6
- survivor count (dose: 25.0 mg/kg/injection, schedule: Q01DX009 (ip), vehicle: saline with Tween-80): 0 of 6
- survivor count (dose: 50.0 mg/kg/injection, schedule: Q01DX009 (ip), vehicle: saline with Tween-80): 0 of 6
- survivor count (dose: 100.0 mg/kg/injection, schedule: Q01DX009 (ip), vehicle: saline with Tween-80): 0 of 6

SMILES: O=C1OC2(CCCCC2)OC(=O)C1=Cc1ccc([N+](=O)[O-])s1
- survivor count [4]: 0 of 6

SMILES: CN1C2CCC1C(O)C(c1ccc(Cl)cc1)C2 (stereo unspecified)
- survivor count [3]: 2 of 6

SMILES: O=C1C(F)=C(N2CC2)C(=O)C(F)=C1N1CC1
- T/C (dose: 1.56 mg/kg/injection, schedule: Q01DX009 (ip), vehicle: saline): 136 % of control
- T/C (dose: 3.12 mg/kg/injection, schedule: Q01DX009 (ip), vehicle: saline): 130 % of control
- T/C (dose: 6.25 mg/kg/injection, schedule: Q01DX009 (ip), vehicle: saline): 141 % of control [5 of 6 alive]
- survivor count (dose: 12.5 mg/kg/injection, schedule: Q01DX009 (ip), vehicle: saline): 4 of 6
- survivor count (dose: 25.0 mg/kg/injection, schedule: Q01DX009 (ip), vehicle: saline): 0 of 6

SMILES: CC1OC(c2ccc3c(c2O)C(=O)C2=C(C3=O)[C@H]3OC(=O)C[C@H]3O[C@@H]2C)CC(N(C)C)C1O (stereo partly specified)
- survivor count (dose: 3.0 mg/kg/injection, schedule: Q01DX005 (ip), vehicle: other): 4 of 6
- survivor count (dose: 6.0 mg/kg/injection, schedule: Q01DX005 (ip), vehicle: other): 3 of 6
- survivor count (dose: 12.0 mg/kg/injection, schedule: Q01DX005 (ip), vehicle: other): 0 of 6
- survivor count (dose: 375.0 micrograms/kg/injection, schedule: Q01DX005 (ip), vehicle: other): 6 of 6

SMILES: CC1=CN2C(c3ccccc3)=NON(c3ccc(C)cn3)C2C=C1 (stereo unspecified)
- survivor count (dose: 50.0 mg/kg/injection, schedule: Q01DX005 (ip), vehicle: saline with Tween-80): 5 of 5
- survivor count (dose: 100.0 mg/kg/injection, schedule: Q01DX005 (ip), vehicle: saline with Tween-80): 6 of 6

SMILES: COS(=O)(=O)OC1(SC)C=C(c2ccccc2)SS1 (stereo unspecified)
- survivor count (dose: 100.0 mg/kg/injection, schedule: Q01DX001 (ip), vehicle: saline): 2 of 6
